{
  "sequences": {"note": "Amino acid sequences for entries named in this document (tags omitted).", "UniProt Q9UJ55": "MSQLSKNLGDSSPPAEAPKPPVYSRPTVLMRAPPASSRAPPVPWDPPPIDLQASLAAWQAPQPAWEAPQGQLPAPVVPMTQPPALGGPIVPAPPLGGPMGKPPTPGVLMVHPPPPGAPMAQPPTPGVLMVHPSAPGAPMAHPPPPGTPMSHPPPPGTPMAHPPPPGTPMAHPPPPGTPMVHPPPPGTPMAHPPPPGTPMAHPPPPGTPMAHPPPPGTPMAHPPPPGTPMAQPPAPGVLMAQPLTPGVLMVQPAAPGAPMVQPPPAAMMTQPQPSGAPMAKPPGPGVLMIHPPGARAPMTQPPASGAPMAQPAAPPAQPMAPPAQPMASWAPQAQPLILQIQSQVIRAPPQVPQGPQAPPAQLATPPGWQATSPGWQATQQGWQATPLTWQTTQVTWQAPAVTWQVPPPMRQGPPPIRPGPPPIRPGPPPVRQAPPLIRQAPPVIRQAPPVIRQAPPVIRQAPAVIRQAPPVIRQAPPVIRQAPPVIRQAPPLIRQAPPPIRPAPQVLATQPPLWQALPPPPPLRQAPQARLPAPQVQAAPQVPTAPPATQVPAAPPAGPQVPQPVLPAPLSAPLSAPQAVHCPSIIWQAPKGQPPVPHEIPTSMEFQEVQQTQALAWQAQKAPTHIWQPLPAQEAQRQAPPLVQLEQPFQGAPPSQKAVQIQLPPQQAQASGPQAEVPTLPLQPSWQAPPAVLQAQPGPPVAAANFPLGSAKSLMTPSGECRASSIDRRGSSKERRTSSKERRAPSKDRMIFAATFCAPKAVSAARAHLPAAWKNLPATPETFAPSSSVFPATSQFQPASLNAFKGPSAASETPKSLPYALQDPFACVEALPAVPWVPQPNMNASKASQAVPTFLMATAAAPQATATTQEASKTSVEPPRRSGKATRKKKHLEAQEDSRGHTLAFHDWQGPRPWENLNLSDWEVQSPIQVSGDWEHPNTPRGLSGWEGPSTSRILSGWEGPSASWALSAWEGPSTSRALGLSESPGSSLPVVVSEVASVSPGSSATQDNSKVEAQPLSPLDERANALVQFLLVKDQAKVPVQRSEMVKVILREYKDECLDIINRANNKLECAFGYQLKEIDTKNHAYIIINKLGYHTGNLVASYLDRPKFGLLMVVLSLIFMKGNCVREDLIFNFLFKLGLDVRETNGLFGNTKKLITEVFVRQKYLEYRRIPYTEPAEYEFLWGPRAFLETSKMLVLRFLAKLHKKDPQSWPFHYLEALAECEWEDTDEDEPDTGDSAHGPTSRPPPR"},
  "source": "paper PMC7173924",
  "target": "FLAG-MAGEL2 (tetracycline-inducible, stable cell line) (human) (UniProt Q9UJ55)",
  "experiment": "co-IP; lysate of stable HEK 293 T-Rex Flp-In cells induced (+tet) or not (-tet) to express FLAG-MAGEL2; anti-FLAG magnetic agarose beads; lysis buffer 25 mM Tris-Cl, 150 mM NaCl, 1% IGEPAL, 5% glycerol pH 7.4; in triplicate; blots for endogenous USP7 and CRY1",
  "note": "No constants are given. Whether binding was seen depends on the method and setting. In cells and extracts the contact can be indirect.",
  "data": [
    {"binder": "endogenous CRY1 (protein, UniProt Q16526 1-586) MGVNAVHWFRKGLRLHDNPALKECIQGADTIRCVYILDPWFAGSSNVGINRWRFLLQCLEDLDANLRKLNSRLFVIRGQPADVFPRLFKEWNITKLSIEYDSEPFGKERDAAIKKLATEAGVEVIVRISHTLYDLDKIIELNGGQPPLTYKRFQTLISKMEPLEIPVETITSEVIEKCTTPLSDDHDEKYGVPSLEELGFDTDGLSSAVWPGGETEALTRLERHLERKAWVANFERPRMNANSLLASPTGLSPYLRFGCLSCRLFYFKLTDLYKKVKKNSSPPLSLYGQLLWREFFYTAATNNPRFDKMEGNPICVQIPWDKNPEALAKWAEGRTGFPWIDAIMTQLRQEGWIHHLARHAVACFLTRGDLWISWEEGMKVFEELLLDADWSINAGSWMWLSCSSFFQQFFHCYCPVGFGRRTDPNGDYIRRYLPVLRGFPAKYIYDPWNAPEGIQKVAKCLIGVNYPKPMVNHAEASRLNIERMKQIYQQLSRYRGLGLLASVPSNPNGNGGFMGYSAENIPGCSSSGSCSQGSGILHYAHGDSQQTHLLKQGRSSMGTGLSGGKRPSQEEDTQSIGPKVQRQSTN", "values": [
      {"measurement": "binding", "result": "no binding"}
    ]}
  ]
}
